From the supplement of paper PMC8256030
Where “and” joins values, the source holds several entries; their conditions need not be identical. Identical values can stand only once. This is one part of the list. Repeats in this data set agree poorly, so a single value says little.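 HEK293T cells were given each compound shortly before transfection with a reporter in which red mCherry is followed by the SARS-CoV-2 frameshift element and then GFP in the −1 frame, so GFP appears only after frameshifting.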

Test system: HEK293T
Test: percent viability (nuclei count) relative to control; higher = more viable cells
Details: 10 µM; 24 h

SMILES | percent viability
O=C1N(c2ccccc2)c2ccccc2C1(Cc1ccncc1)Cc1ccncc1 [linopirdine] | 196%
C[C@]12CC[C@@H]3c4ccc(OS(=O)(=O)O)cc4CC[C@H]3[C@@H]1CCC2=O | 267%
CCOC(=O)[C@H](CCc1ccccc1)N[C@@H](C)C(=O)N1Cc2ccccc2C[C@H]1C(=O)O [quinapril] | 166% and 396%
CC(=O)N(CC(O)CO)c1c(I)c(C(=O)NCC(O)CO)c(I)c(C(=O)NCC(O)CO)c1I (configuration not stated) [iohexol] | 186%
Cc1ccc(S(=O)(=O)NC(=O)NN2CCCCCC2)cc1 [Tolazamide] | 96.7%
COc1ccc(-c2nc(C(F)(F)F)sc2-c2ccc(OC)cc2)cc1 [itazigrel] | 139%
N=c1ccn2c(n1)O[C@H]1[C@H](O)[C@@H](CO)O[C@H]12 [ancitabine] | 301% and 193%
C[C@H]1C[C@H]2[C@@H]3CCC4=CC(=O)C=C[C@]4(C)[C@@]3(Cl)[C@@H](O)C[C@]2(C)[C@@]1(O)C(=O)CO [beclometasone] | 121%
CCOC(=O)Nc1ccc2c(c1)N(C(=O)CCN1CCOCC1)c1ccccc1S2 [moracizine] | 213%
CCNCc1c(CSC)cnc(C)c1O [tamitinol] | 134%
CCC(C)(C)NCC(O)COc1ccccc1C#N (configuration not stated) [penirolol] | 298%
CCCCCCCCCCCCN1CCCCCC1=O [laurocapram] | 146%
CO[C@@H]1[C@@H](O[C@@H]2O[C@H](C)[C@@H](O[C@H]3C[C@@](C)(O)[C@@H](OC(=O)CC(C)C)[C@H](C)O3)[C@H](N(C)C)[C@H]2O)[C@@H](CC=O)C[C@@H](C)[C@@H](O)/C=C/C=C/C[C@@H](C)OC(=O)C[C@H]1OC(C)=O [josamycin] | 168%
N[C@H]1CONC1=O [levcycloserine] | 137%
CCOC(=O)[C@@H](N)Cc1ccc(O)c(O)c1 [etilevodopa] | 252%
O=C(O)CCc1nc(-c2ccccc2)c(-c2ccccc2)o1 [oxaprozin] | 351%
C=CCc1ccccc1OCC(O)CNC(C)C (configuration not stated) [alprenolol] | 178%
CC[C@H](C)[C@@H]1NC(=O)[C@H](Cc2ccc(OC)cc2)NC(=O)CCCSC[C@@H](C(=O)N2CCC[C@H]2C(=O)N[C@@H](CC(C)C)C(=O)NCC(N)=O)NC(=O)[C@H](CC(N)=O)NC(=O)[C@H](CCC(N)=O)NC1=O | 272%
NC(=O)c1cccnc1 [nicotinamide] | 378%

SMILES | percent viability
Oc1ccc(Cl)cc1Sc1cc(Cl)ccc1O [fenticlor] | 200%
CC(=O)Oc1cccc(C)c1 | 83.8%
CC1CCN(C(=O)[C@@H](CCn2cccc2C#N)NS(=O)(=O)c2cccc3[nH]ccc23)CC1 | 136%
CO[C@@]1(NC(=O)CSCC#N)C(=O)N2C(C(=O)O)=C(CSc3nnnn3C)CS[C@@H]21 [cefmetazole] | 233%
CCCCC(CC)COC(=O)c1ccccc1O (configuration not stated) [octisalate] | 116%
CCC1(c2c[nH]cn2)Cc2ccccc2C1 [atipamezole] | 429%
Cc1[nH]c(=O)c(C#N)cc1-c1ccncc1 [milrinone] | 168% and 234%
CN1C2CCCC1CC(NC(=O)c1nn(C)c3ccccc13)C2 (configuration not stated) [Granisetron] | 270%
Nc1ccc(S(=O)(=O)Nc2cnc3ccccc3n2)cc1 | 193%
C1CCN2C[C@@H]3C[C@@H](CN4CCCC[C@@H]34)[C@H]2C1 [(-)-Sparteine] | 87.7%
CN(C)c1ccc(O)c2c1C[C@H]1C[C@H]3[C@H](N(C)C)C(=O)C(C(N)=O)=C(O)[C@@]3(O)C(=O)C1=C2O | 265%
CC(C)C[C@H](N)C(=O)O [leucine] | 107%
O=C1c2c(O)cccc2[C@@H](O[C@@H]2O[C@H](CO)[C@H](O)[C@@H](O)[C@H]2O)c2cc(CO)cc(O)c21 | 150%
C=C1CC[C@H](O)C/C1=C/C=C1\CCC[C@]2(C)[C@@H]([C@H](C)/C=C/[C@H](C)C(C)C)CC[C@@H]12 | 133%
C=C1c2cccc(O)c2C(O)=C2C(=O)[C@]3(O)C(O)=C(C(N)=O)C(=O)[C@@H](N(C)C)[C@@H]3[C@@H](O)[C@H]12 [metacycline] | 124%
CC1CCCC(C)N1 (configuration not stated) [nanofin] | 205%
COc1cccc(OC)c1C(=O)N[C@@H]1C(=O)N2[C@@H]1SC(C)(C)[C@@H]2C(=O)O | 149%
CO[C@@H]1[C@@H](OC(N)=O)[C@@H](O)[C@H](Oc2ccc3c(O)c(NC(=O)c4ccc(O)c(CC=C(C)C)c4)c(=O)oc3c2C)OC1(C)C | 303%
